From patent US4125501A, “Phosphites of sugar alcohols and polymers stabilized therewith” (Hoechst Aktiengesellschaft, priority 1976, dated 1978)

Experiment: stability to light in polypropylene (Xenotest)
Conditions: Xenotest 150, 0.20 part phosphite per 100 parts polypropylene

Substance: Tri-(β-hydroxy-triacontyl)-sorbityl-triphosphite [Example 1]
- exposure time until elongation at break dropped to 10% of the initial value: 578 h
